Data from PubChem BioAssay AID256 (DTP/NCI, 2004).
The list does not hold the whole screen: it gathers tests that were run many times, whatever their T/C, doses with no T/C, and many T/C values between a quarter and a half above the control. Further doses and runs are listed elsewhere. T/C gives the treated animals as a percentage of the vehicle group. Some entries give survivors of the animals treated and no T/C: the source holds a T/C of zero for them, seemingly a mark for toxic or unscored doses. Some survivor counts are full or nearly so, which does not show that the dose was tolerated: the source hardly ever lists a survival T/C far under the control, and the zero likely stands for such cases as well. Counts of survivors are from the toxicity check (mostly the fifth day) where no day follows; animals may have died later. Schedules are NCI's codes, taken here to give the interval after Q, in days (D) or hours (H), and the number of doses after X. Where survival is the endpoint, this PubChem deposit counts one and a half times the control or more as active, and values a quarter to a half above the control carry no call in these data; other NCI protocols may use other cut-offs. Some entries were tested several times; the values are given in rising order. Counts like (3×) count equal records among those shown. Some T/C values are followed by the survivors on the day toxicity was checked, most often the fifth; where none is given, no animal had died by that day.

System: CD2F1 mice, L1210 leukemia ip, survival T/C
Test: NCI In Vivo Anticancer Drug Screen. Data for tumor model L1210 Leukemia (intraperitoneal) in CD2F1 (CDF1) mice
Settings: higher T/C = longer survival
Method in brief: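 Each value reflects a quotient of treated over vehicle control outcomes in mice with a transplanted tumor.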

Compound: COc1cccc2c1C(=O)c1c(O)c3c(c(O)c1C2=O)C[C@@](O)(C(=O)CO)C[C@@H]3OC1CC(N)C(O)C(C)O1 (stereo partly drawn)
- survivor count (T/C endpoint: mean survival time, dose: 4.0 mg/kg/injection, schedule: Q01DX009 (ip), vehicle: water): 6 of 6
- T/C (T/C endpoint: mean survival time, dose: 5.0 mg/kg/injection, schedule: Q01DX001 (ip), vehicle: saline): 149 % of control
- T/C (T/C endpoint: mean survival time, dose: 5.0 mg/kg/injection, schedule: Q04DX003 (ip), vehicle: saline): 137 and 148 % of control
- T/C (T/C endpoint: mean survival time, dose: 5.0 mg/kg/injection, schedule: Q04DX003 (ip), vehicle: water): 147 % of control
- survivor count (T/C endpoint: mean survival time, dose: 6.0 mg/kg/injection, schedule: Q01DX009 (ip), vehicle: saline): 8 of 8
- survivor count (T/C endpoint: mean survival time, dose: 6.25 mg/kg/injection, schedule: Q01DX009 (ip), vehicle: water): 6 of 6
- T/C (T/C endpoint: mean survival time, dose: 6.6 mg/kg/injection, schedule: Q01DX001 (ip), vehicle: saline): 145 % of control
- survivor count (T/C endpoint: mean survival time, dose: 7.78 mg/kg/injection, schedule: Q01DX009 (ip), vehicle: water): 4 of 8
- survivor count (T/C endpoint: mean survival time, dose: 8.0 mg/kg/injection, schedule: Q01DX005 (ip), vehicle: water): 2 of 6
- T/C (T/C endpoint: mean survival time, dose: 8.0 mg/kg/injection, schedule: Q01DX009 (ip), vehicle: saline, evaluated on day 30): 86, 93, 94 % of control
- T/C (T/C endpoint: mean survival time, dose: 8.0 mg/kg/injection, schedule: Q01DX009 (ip), vehicle: saline, evaluated on day 60): 97 % of control
- survivor count (T/C endpoint: mean survival time, dose: 8.0 mg/kg/injection, schedule: Q01DX009 (ip), vehicle: saline): 6 of 6
- T/C (T/C endpoint: mean survival time, dose: 9.0 mg/kg/injection, schedule: Q01DX001 (ip), vehicle: saline): 140 % of control
- T/C (T/C endpoint: mean survival time, dose: 10.0 mg/kg/injection, schedule: Q01DX001 (ip), vehicle: saline, evaluated on day 5): 202 % of control
- T/C (T/C endpoint: mean survival time, dose: 10.0 mg/kg/injection, schedule: Q01DX001 (ip), vehicle: saline, evaluated on day 45): 148, 158, 202 % of control
- T/C (T/C endpoint: mean survival time, dose: 10.0 mg/kg/injection, schedule: Q01DX001 (ip), vehicle: saline, evaluated on day 60): 294 % of control
- T/C (T/C endpoint: mean survival time, dose: 10.0 mg/kg/injection, schedule: Q04DX003 (ip), vehicle: saline): 139 % of control
- T/C (T/C endpoint: mean survival time, dose: 10.0 mg/kg/injection, schedule: Q04DX003 (ip), vehicle: water): 133 % of control
- survivor count (T/C endpoint: mean survival time, dose: 12.0 mg/kg/injection, schedule: Q01DX009 (ip), vehicle: saline): 6 of 6
- survivor count (T/C endpoint: mean survival time, dose: 12.96 mg/kg/injection, schedule: Q01DX009 (ip), vehicle: water): 0 of 8
- survivor count (T/C endpoint: mean survival time, dose: 16.0 mg/kg/injection, schedule: Q04DX003 (ip), vehicle: water): 5 of 6
- T/C (T/C endpoint: mean survival time, dose: 20.0 mg/kg/injection, schedule: Q01DX001 (ip), vehicle: saline, evaluated on day 5): 127 % of control
- T/C (T/C endpoint: mean survival time, dose: 20.0 mg/kg/injection, schedule: Q01DX001 (ip), vehicle: saline, evaluated on day 45): 127 % of control [9 of 10 alive]
- survivor count (T/C endpoint: mean survival time, dose: 21.6 mg/kg/injection, schedule: Q01DX001 (ip), vehicle: water): 8 of 8
- survivor count (T/C endpoint: mean survival time, dose: 40.0 mg/kg/injection, schedule: Q01DX001 (ip), vehicle: water): 0 of 6
- T/C (T/C endpoint: median survival time, dose: 0.13 mg/kg/injection, schedule: Q01DX009 (ip), vehicle: saline): 131 % of control
- T/C (T/C endpoint: median survival time, dose: 0.25 mg/kg/injection, schedule: Q01DX009 (ip), vehicle: saline): 137 and 142 % of control
- T/C (T/C endpoint: median survival time, dose: 0.5 mg/kg/injection, schedule: Q01DX005 (ip), vehicle: water): 137 % of control
- T/C (T/C endpoint: median survival time, dose: 0.5 mg/kg/injection, schedule: Q01DX009 (ip), vehicle: saline, evaluated on day 5): 144 % of control
- T/C (T/C endpoint: median survival time, dose: 0.5 mg/kg/injection, schedule: Q01DX009 (ip), vehicle: saline, evaluated on day 30): 140 % of control
- T/C (T/C endpoint: median survival time, dose: 1.0 mg/kg/injection, schedule: Q01DX001 (ip), vehicle: saline, evaluated on day 6): 104, 105, 107, 117, 123, 128 % of control
- T/C (T/C endpoint: median survival time, dose: 1.0 mg/kg/injection, schedule: Q01DX001 (ip), vehicle: saline, evaluated on day 11): 104, 105, 107, 117, 123, 128 % of control
- T/C (T/C endpoint: median survival time, dose: 1.0 mg/kg/injection, schedule: Q01DX001 (ip), vehicle: water, evaluated on day 5): 130 % of control
- T/C (T/C endpoint: median survival time, dose: 1.0 mg/kg/injection, schedule: Q01DX001 (ip), vehicle: water, evaluated on day 33): 130 % of control
- T/C (T/C endpoint: median survival time, dose: 1.0 mg/kg/injection, schedule: Q01DX009 (ip), vehicle: saline, evaluated on day 5): 134 and 143 % of control
- T/C (T/C endpoint: median survival time, dose: 1.0 mg/kg/injection, schedule: Q01DX009 (ip), vehicle: saline, evaluated on day 30): 129 and 152 % of control
- T/C (T/C endpoint: median survival time, dose: 1.0 mg/kg/injection, schedule: Q04DX003 (ip), vehicle: saline): 142 % of control
- T/C (T/C endpoint: median survival time, dose: 1.0 mg/kg/injection, schedule: Q04DX003 (ip), vehicle: water, evaluated on day 30): 130 % of control
- T/C (T/C endpoint: median survival time, dose: 1.0 mg/kg/injection, schedule: Q04DX003 (ip), vehicle: water, evaluated on day 35): 145 % of control
- T/C (T/C endpoint: median survival time, dose: 2.0 mg/kg/injection, schedule: Q01DX001 (ip), vehicle: saline, evaluated on day 6): 103, 104, 117, 126 (2×), 130 % of control
- T/C (T/C endpoint: median survival time, dose: 2.0 mg/kg/injection, schedule: Q01DX001 (ip), vehicle: saline, evaluated on day 11): 103, 104, 117, 126 (2×), 130 % of control
- T/C (T/C endpoint: median survival time, dose: 2.0 mg/kg/injection, schedule: Q01DX001 (ip), vehicle: water, evaluated on day 5): 130 % of control
- T/C (T/C endpoint: median survival time, dose: 2.0 mg/kg/injection, schedule: Q01DX001 (ip), vehicle: water, evaluated on day 33): 130 % of control
